Some entries share one result that the patent states for a list of compounds.
How the values were obtained:
Type in all cases: in vivo
[1] = test system: Diamondback moth (Plutella xylostella); experiment: Insecticidal test on diamondback moth, dip treatment of Chinese cabbage seedlings with laid eggs; settings: seedlings with eggs dipped about 30 seconds, counted 6 days after dip treatment, 25° C.
[2] = test system: Small Brown Planthopper (Laodelphax striatellus); experiment: Insecticidal test on small brown planthopper, dip treatment of rice plant seedlings; settings: rice seedlings dipped 30 seconds, 3rd-instar larvae, counted 8 days after inoculation
Text: (§1) • A: the mortality rate is 100%. • B: the mortality rate is 90 to 99%. • C: the mortality rate is 80 to 89%. • D: the mortality rate is 50 to 79%. • E: the mortality rate is 0 to 49.
Insecticidal Test on Small Brown Planthopper (Laodelphax striatellus)
The compounds represented by the general formula (1) of the present invention or salts thereof were separately dispersed in water and diluted to 50 ppm or 500 ppm. Rice plant seedlings (variety: Nihonbare) were dipped in the agrochemical dispersions for 30 seconds. After air-dried, each seedling was put into a separate glass test tube and inoculated with ten 3rd-instar larvae of small brown planthopper, and then the glass test tubes were capped with cotton plugs. At 8 days after the inoculation, the numbers of surviving larvae and dead larvae were counted, the corrected mortality rate was calculated according to the formula shown below, and the insecticidal efficacy was evaluated according to the criteria of Test Example 1.

[3] = test system: Western flower thrips (Frankliniella occidentalis); experiment: Insecticidal test on western flower thrips, larvae on kidney bean leaf pieces; settings: hatched larvae on kidney bean leaf pieces, counted 4 days after treatment
Text: as §1
Insecticidal Test on Western flower thrips (Frankliniella occidentalis)
Female adults of western flower thrips were inoculated onto kidney bean leaf pieces, and allowed to lay eggs thereon for one day, then the female adults were removed. After 3 days, the hatched larvae on the leaf pieces were counted, and then the agrochemical dispersions diluted to 50 ppm or 500 ppm, each of which contained the compound described in Tables 1 to 5 as an active ingredient were applied. The number of larvae of the species surviving at 4 days after the treatment was counted, and the corrected mortality rate was calculated according to the formula shown below, and the insecticidal efficacy was evaluated according to the criteria of Test Example 1. This test was conducted in duplicate.

Cc1cc(NC(=O)c2c([O-])c[n+](-c3ccc(Cl)cn3)nc2O)ccc1F [1-61]
A (the mortality rate is 100%.): insecticidal efficacy (corrected mortality rate) against diamondback moth ([1]; 50 ppm dispersion) | insecticidal efficacy (corrected mortality rate) against diamondback moth ([1]; 500 ppm dispersion) | insecticidal efficacy (corrected mortality rate) against small brown planthopper ([2]; 500 ppm) | insecticidal efficacy (corrected mortality rate) against western flower thrips ([3]; 50 ppm) | insecticidal efficacy (corrected mortality rate) against western flower thrips ([3]; 500 ppm)

Cc1cc(-[n+]2cc([O-])c(C(=O)Nc3cccnc3)c(O)n2)cnc1C#N [1-138]
A (the mortality rate is 100%.): insecticidal efficacy (corrected mortality rate) against diamondback moth ([1]; 500 ppm dispersion) | insecticidal efficacy (corrected mortality rate) against small brown planthopper ([2]; 500 ppm) | insecticidal efficacy (corrected mortality rate) against western flower thrips ([3]; 500 ppm)

O=C(Nc1ccc(F)c(F)c1)c1c([O-])c[n+](-c2ccc(Cl)cn2)nc1O [1-59]
A (the mortality rate is 100%.): insecticidal efficacy (corrected mortality rate) against diamondback moth ([1]; 50 ppm dispersion) | insecticidal efficacy (corrected mortality rate) against diamondback moth ([1]; 500 ppm dispersion) | insecticidal efficacy (corrected mortality rate) against small brown planthopper ([2]; 50 ppm) | insecticidal efficacy (corrected mortality rate) against small brown planthopper ([2]; 500 ppm) | insecticidal efficacy (corrected mortality rate) against western flower thrips ([3]; 50 ppm) | insecticidal efficacy (corrected mortality rate) against western flower thrips ([3]; 500 ppm)

O=C(Nc1ccc(F)cc1)c1c([O-])c[n+](-c2ccc(Cl)nc2)nc1O [1-72]
A (the mortality rate is 100%.): insecticidal efficacy (corrected mortality rate) against diamondback moth ([1]; 50 ppm dispersion) | insecticidal efficacy (corrected mortality rate) against diamondback moth ([1]; 500 ppm dispersion) | insecticidal efficacy (corrected mortality rate) against small brown planthopper ([2]; 50 ppm) | insecticidal efficacy (corrected mortality rate) against small brown planthopper ([2]; 500 ppm) | insecticidal efficacy (corrected mortality rate) against western flower thrips ([3]; 50 ppm) | insecticidal efficacy (corrected mortality rate) against western flower thrips ([3]; 500 ppm)

Cc1cc(-[n+]2cc([O-])c(C(=O)Nc3ccc(C#N)cc3)c(O)n2)cnc1C#N [1-130]
A (the mortality rate is 100%.): insecticidal efficacy (corrected mortality rate) against diamondback moth ([1]; 50 ppm dispersion) | insecticidal efficacy (corrected mortality rate) against diamondback moth ([1]; 500 ppm dispersion) | insecticidal efficacy (corrected mortality rate) against small brown planthopper ([2]; 50 ppm) | insecticidal efficacy (corrected mortality rate) against small brown planthopper ([2]; 500 ppm) | insecticidal efficacy (corrected mortality rate) against western flower thrips ([3]; 50 ppm) | insecticidal efficacy (corrected mortality rate) against western flower thrips ([3]; 500 ppm)

Cc1cc(-[n+]2cc([O-])c(C(=O)Nc3ccc(F)cc3)c(O)n2)ccc1C#N [1-46]
A (the mortality rate is 100%.): insecticidal efficacy (corrected mortality rate) against diamondback moth ([1]; 50 ppm dispersion) | insecticidal efficacy (corrected mortality rate) against diamondback moth ([1]; 500 ppm dispersion) | insecticidal efficacy (corrected mortality rate) against small brown planthopper ([2]; 50 ppm) | insecticidal efficacy (corrected mortality rate) against small brown planthopper ([2]; 500 ppm) | insecticidal efficacy (corrected mortality rate) against western flower thrips ([3]; 50 ppm) | insecticidal efficacy (corrected mortality rate) against western flower thrips ([3]; 500 ppm)

C[S+]([O-])c1cc(-[n+]2cc([O-])c(C(=O)Nc3ccc(F)cc3)c(O)n2)cnc1C#N (centres unmarked) [1-139, 1-(6-cyano-5-(methylsulfinyl)pyridin-3-yl)-4-((4-fluorophenyl)carbamoyl)-3-hydroxypyridazin-1-ium-5-oleate]
A (the mortality rate is 100%.): insecticidal efficacy (corrected mortality rate) against diamondback moth ([1]; 500 ppm dispersion) | insecticidal efficacy (corrected mortality rate) against small brown planthopper ([2]; 500 ppm) | insecticidal efficacy (corrected mortality rate) against western flower thrips ([3]; 500 ppm)

Cc1cc(-[n+]2cc([O-])c(C(=O)Nc3ccc(F)cn3)c(O)n2)cnc1C#N [1-135]
A (the mortality rate is 100%.): insecticidal efficacy (corrected mortality rate) against diamondback moth ([1]; 500 ppm dispersion) | insecticidal efficacy (corrected mortality rate) against small brown planthopper ([2]; 50 ppm) | insecticidal efficacy (corrected mortality rate) against small brown planthopper ([2]; 500 ppm) | insecticidal efficacy (corrected mortality rate) against western flower thrips ([3]; 500 ppm)

O=C(Nc1ccc(F)c(F)c1)c1c([O-])c[n+](-c2ccc(C(F)(F)F)cn2)nc1O [1-56]
A (the mortality rate is 100%.): insecticidal efficacy (corrected mortality rate) against diamondback moth ([1]; 50 ppm dispersion) | insecticidal efficacy (corrected mortality rate) against diamondback moth ([1]; 500 ppm dispersion) | insecticidal efficacy (corrected mortality rate) against small brown planthopper ([2]; 500 ppm) | insecticidal efficacy (corrected mortality rate) against western flower thrips ([3]; 50 ppm) | insecticidal efficacy (corrected mortality rate) against western flower thrips ([3]; 500 ppm)

Cc1ccc(NC(=O)c2c([O-])c[n+](-c3ccc(C(F)(F)F)nc3)nc2O)nc1 [1-92]
A (the mortality rate is 100%.): insecticidal efficacy (corrected mortality rate) against diamondback moth ([1]; 500 ppm dispersion) | insecticidal efficacy (corrected mortality rate) against small brown planthopper ([2]; 50 ppm) | insecticidal efficacy (corrected mortality rate) against small brown planthopper ([2]; 500 ppm) | insecticidal efficacy (corrected mortality rate) against western flower thrips ([3]; 50 ppm) | insecticidal efficacy (corrected mortality rate) against western flower thrips ([3]; 500 ppm)

O=C(Nc1ccc(F)nc1)c1c([O-])c[n+](-c2ccc(Cl)cn2)nc1O [1-64]
A (the mortality rate is 100%.): insecticidal efficacy (corrected mortality rate) against diamondback moth ([1]; 50 ppm dispersion) | insecticidal efficacy (corrected mortality rate) against diamondback moth ([1]; 500 ppm dispersion) | insecticidal efficacy (corrected mortality rate) against small brown planthopper ([2]; 50 ppm) | insecticidal efficacy (corrected mortality rate) against small brown planthopper ([2]; 500 ppm) | insecticidal efficacy (corrected mortality rate) against western flower thrips ([3]; 50 ppm) | insecticidal efficacy (corrected mortality rate) against western flower thrips ([3]; 500 ppm)

N#Cc1cc(-[n+]2cc([O-])c(C(=O)Nc3ccc(F)cc3)c(O)n2)ccc1Cl [1-40]
A (the mortality rate is 100%.): insecticidal efficacy (corrected mortality rate) against diamondback moth ([1]; 50 ppm dispersion) | insecticidal efficacy (corrected mortality rate) against diamondback moth ([1]; 500 ppm dispersion) | insecticidal efficacy (corrected mortality rate) against small brown planthopper ([2]; 500 ppm) | insecticidal efficacy (corrected mortality rate) against western flower thrips ([3]; 50 ppm) | insecticidal efficacy (corrected mortality rate) against western flower thrips ([3]; 500 ppm)

N#Cc1ccc(NC(=O)c2c([O-])c[n+](-c3ccc(Cl)nc3)nc2O)cc1 [1-69]
A (the mortality rate is 100%.): insecticidal efficacy (corrected mortality rate) against diamondback moth ([1]; 500 ppm dispersion) | insecticidal efficacy (corrected mortality rate) against small brown planthopper ([2]; 50 ppm) | insecticidal efficacy (corrected mortality rate) against small brown planthopper ([2]; 500 ppm) | insecticidal efficacy (corrected mortality rate) against western flower thrips ([3]; 50 ppm) | insecticidal efficacy (corrected mortality rate) against western flower thrips ([3]; 500 ppm)

N#Cc1ccc(-[n+]2cc([O-])c(C(=O)Nc3ccc(F)c(F)c3)c(O)n2)cc1 [1-19]
A (the mortality rate is 100%.): insecticidal efficacy (corrected mortality rate) against diamondback moth ([1]; 50 ppm dispersion) | insecticidal efficacy (corrected mortality rate) against diamondback moth ([1]; 500 ppm dispersion) | insecticidal efficacy (corrected mortality rate) against small brown planthopper ([2]; 50 ppm) | insecticidal efficacy (corrected mortality rate) against small brown planthopper ([2]; 500 ppm) | insecticidal efficacy (corrected mortality rate) against western flower thrips ([3]; 50 ppm) | insecticidal efficacy (corrected mortality rate) against western flower thrips ([3]; 500 ppm)

N#Cc1ccc(NC(=O)c2c([O-])c[n+](-c3ccc(C#N)nc3)nc2O)cc1 [1-113]
A (the mortality rate is 100%.): insecticidal efficacy (corrected mortality rate) against diamondback moth ([1]; 500 ppm dispersion) | insecticidal efficacy (corrected mortality rate) against small brown planthopper ([2]; 500 ppm) | insecticidal efficacy (corrected mortality rate) against western flower thrips ([3]; 50 ppm) | insecticidal efficacy (corrected mortality rate) against western flower thrips ([3]; 500 ppm)

Cc1cc(-[n+]2cc([O-])c(C(=O)Nc3ccc(Cl)cn3)c(O)n2)cnc1C#N [1-134]
A (the mortality rate is 100%.): insecticidal efficacy (corrected mortality rate) against diamondback moth ([1]; 50 ppm dispersion) | insecticidal efficacy (corrected mortality rate) against diamondback moth ([1]; 500 ppm dispersion) | insecticidal efficacy (corrected mortality rate) against small brown planthopper ([2]; 50 ppm) | insecticidal efficacy (corrected mortality rate) against small brown planthopper ([2]; 500 ppm) | insecticidal efficacy (corrected mortality rate) against western flower thrips ([3]; 50 ppm) | insecticidal efficacy (corrected mortality rate) against western flower thrips ([3]; 500 ppm)

O=C(Nc1ccc(F)cc1)c1c([O-])c[n+](-c2ccc(Br)nc2)nc1O [1-81]
A (the mortality rate is 100%.): insecticidal efficacy (corrected mortality rate) against diamondback moth ([1]; 50 ppm dispersion) | insecticidal efficacy (corrected mortality rate) against diamondback moth ([1]; 500 ppm dispersion) | insecticidal efficacy (corrected mortality rate) against small brown planthopper ([2]; 50 ppm) | insecticidal efficacy (corrected mortality rate) against small brown planthopper ([2]; 500 ppm) | insecticidal efficacy (corrected mortality rate) against western flower thrips ([3]; 500 ppm)

— patent US20250194600A1, “MESOIONIC ARYLPYRIDAZINIUM DERIVATIVE OR SALT THEREOF AND INSECTICIDAL AGENT CONTAINING THE COMPOUND AND METHOD FOR USING SAME” (NIHON NOHYAKU CO., LTD., priority 2022, published 2025)
